{"source": "the supplement of paper PMC9015667", "note": "Structures can show the parent of a compound that is named as a salt. The list shows a part of the results. Most values come without repeats; read them as rough."}
{"system": "UACC62P (parental melanoma line)", "assay": "reduction in cell viability relative to untreated/vehicle; higher = more growth inhibition", "conditions": "200 nM; 72 h", "units": {"reduction in cell viability": "%"}}
{"smiles": "CN(C)CCN(Cc1ccc(Cl)cc1)c1ccccn1", "note": "[Chloropyramine hydrochloride]", "reduction in cell viability": "< 0"}
{"smiles": "N#Cc1c(C2CCNCC2)cc(-c2c(O)cccc2OCC2CC2)nc1N", "note": "[IKK-2 Inhibitor VIII]", "reduction in cell viability": "< 0"}
{"smiles": "CN1CCN(c2ncc(-c3cc(Cl)cc(Cl)c3Cl)c(N)n2)CC1", "note": "[Sipatrigine]", "reduction in cell viability": "< 0"}
{"smiles": "CC(=O)N1CCN(c2ccc(OCc3nn(C)c(C)c3-c3cccc4c(CCCOc5cc(C)c(Cl)c(C)c5)c(C(=O)O)n(Cc5cccnc5)c34)cc2)CC1", "reduction in cell viability": "< 0"}
{"smiles": "CCC1=C[C@@H]2CN(C1)Cc1c([nH]c3ccccc13)[C@@](C(=O)OC)(c1cc3c(cc1OC)N(C)[C@H]1[C@@](O)(C(=O)OC)[C@H](OC(C)=O)[C@]4(CC)C=CCN5CC[C@]31[C@@H]54)C2", "note": "[Vinorelbine tartrate]", "reduction in cell viability": 43}
{"smiles": "CC1(C)C(N(O)C(=O)Nc2ccc(Cl)cc2)N(c2ccc(Cl)cc2)C(=O)N1CC(=O)NN=CC=Cc1ccc([N+](=O)[O-])o1", "note": "(stereo not drawn) [Eeyarestatin I]", "reduction in cell viability": 5.66}
{"smiles": "COc1cc2ncnc(Nc3ccc(F)c(Cl)c3)c2cc1NC(=O)/C=C/CN1CCCCC1", "note": "[Dacomitinib]", "reduction in cell viability": "< 0"}
{"smiles": "CNC(=O)CN1CCC(Oc2cc3c(Nc4cccc(Cl)c4F)ncnc3cc2OC)CC1", "note": "[Sapitinib]", "reduction in cell viability": 4.86}
{"smiles": "COc1c(OCCCN2CCOCC2)ccc2c1N=C(NC(=O)c1cnc(N)nc1)N1CCN=C21", "reduction in cell viability": "< 0"}
{"smiles": "C=CC(=O)N1CCc2ccc(-n3c(=O)ccc4cnc5ccc(-c6cnn(C)c6)cc5c43)cc21", "reduction in cell viability": "< 0"}
{"smiles": "CC[C@H](/C=C/[C@@H](C)[C@H]1CC[C@H]2[C@@H]3CC=C4C[C@@H](O)CC[C@]4(C)[C@H]3CC[C@]12C)C(C)C", "note": "[Stigmasterol]", "reduction in cell viability": 2.15}
{"smiles": "C=C1C[C@@]2(O)O[C@@]3(C[C@H]2C(C)C)[C@@H](C)CC[C@@H]13", "note": "[Curcumol]", "reduction in cell viability": "< 0"}
{"smiles": "Cc1ccc(-c2ncn(-c3ccc(Nc4nccc(-c5cccc(N6CCOCC6)c5)n4)cc3)n2)cn1", "reduction in cell viability": 9.2}
{"smiles": "CN1CCC(=C2c3ccccc3CC(=O)c3sccc32)CC1", "note": "[Ketotifen]", "reduction in cell viability": 0.04}
{"smiles": "CCCCOc1ccc(C(=O)Nc2ccc(F)cc2F)cc1", "reduction in cell viability": "< 0"}
{"smiles": "CCCCCCCCCCC[C@@H](C[C@@H]1OC(=O)[C@H]1CCCCCC)OC(=O)[C@H](CC(C)C)NC=O", "note": "[Orlistat]", "reduction in cell viability": "< 0"}
{"smiles": "CC1=C[C@@H]2[C@H]([C@@H](O)C[C@@]3(C)[C@H]2C[C@@H](C)[C@]3(O)C(=O)CO)[C@@]2(C)Cc3cnn(-c4ccccc4)c3C=C12", "note": "[Deacetyl cortivazol]", "reduction in cell viability": 17.9}
{"smiles": "COC(=O)Nc1nc2cc(C(=O)c3ccc(F)cc3)ccc2[nH]1", "note": "[Flubendazole]", "reduction in cell viability": 10.6}
{"system": "UACC62R (matched melanoma line resistant to BRAF inhibitors)", "assay": "reduction in cell viability relative to untreated/vehicle; higher = more growth inhibition", "conditions": "200 nM; 72 h", "units": {"reduction in cell viability": "%"}}
{"smiles": "CC(C)[C@H](C(=O)Nc1ccc(C(=O)NO)cc1)c1ccccc1", "reduction in cell viability": 72.6}
{"smiles": "Cc1cn[nH]c1", "note": "[Fomepizole]", "reduction in cell viability": "< 0"}
{"smiles": "CC(C)NCC(O)c1ccc(O)c(O)c1", "note": "(stereo not drawn) [Isoproterenol]", "reduction in cell viability": "< 0"}
{"smiles": "Cc1ccc(NC(=O)C2(c3ccc4c(c3)OC(F)(F)O4)CC2)nc1-c1cccc(C(=O)O)c1", "note": "[Lumacaftor]", "reduction in cell viability": "< 0"}
{"smiles": "CCOc1cc(N2CCC(O)CC2)ccc1Nc1ncc2c(n1)N(C)c1ccccc1C(=O)N2C", "reduction in cell viability": "< 0"}
{"smiles": "Clc1ccc(CCC(Cn2ccnc2)Sc2c(Cl)cccc2Cl)cc1", "note": "(stereo not drawn) [Butoconazole nitrate]", "reduction in cell viability": "< 0"}
{"smiles": "COc1ccc(C2CC(c3ccccc3)=NN2c2ccc(S(N)(=O)=O)cc2)cc1", "note": "(stereo not drawn)", "reduction in cell viability": "< 0"}
{"smiles": "O=c1[nH]nc(OCCCc2ccc(Cl)cc2)c(NCc2cccnc2)c1Br", "note": "[Parogrelil]", "reduction in cell viability": "< 0"}
{"smiles": "COc1cc(N2CCC(N3CCN(C)CC3)CC2)ccc1Nc1ncnc(Nc2ccccc2S(=O)(=O)C(C)C)n1", "reduction in cell viability": "< 0"}
{"smiles": "C[C@H](NCc1ccc2c(c1)nc(NC(=O)c1ccc(-c3cn[nH]c3)s1)n2CCc1ccccc1)C(C)(C)C", "reduction in cell viability": 80.5}
{"smiles": "Nc1nc(OCc2ccccc2)c2nc[nH]c2n1", "note": "[O6-Benzylguanine]", "reduction in cell viability": "< 0"}
{"smiles": "CC1(C)OC2=C(C(=O)c3ccccc3C2=O)[C@H](NCc2ccccc2)[C@@H]1O", "reduction in cell viability": "< 0"}
{"smiles": "CCC(=O)O[C@]1(C(=O)CO)CC[C@H]2[C@@H]3CCC4=CC(=O)CC[C@]4(C)[C@H]3CC[C@@]21C", "note": "[17 alpha-propionate]", "reduction in cell viability": "< 0"}
{"smiles": "C=CC(=O)Nc1cccc(Oc2nc(Nc3ccc(N4CCN(C)CC4)cc3OC)ncc2Cl)c1", "reduction in cell viability": "< 0"}
{"smiles": "Cc1[nH]c2ccccc2c1CCNCc1ccc(/C=C/C(=O)NO)cc1", "note": "[Panobinostat (LBH589)]", "reduction in cell viability": 96.3}
{"smiles": "Cc1c(-c2cccc3c(CCCOc4cccc5ccccc45)c(C(=O)O)n(Cc4cccnc4)c23)c(COc2ccc(N3CCN([S+](=O)([O-])N(C)C)CC3)cc2)nn1C", "reduction in cell viability": "< 0"}
{"smiles": "O=C(NCc1ccccc1)c1csc(Nc2ccncn2)n1", "note": "[Thiazovivin]", "reduction in cell viability": "< 0"}
{"smiles": "CNc1nc(Nc2ccc(C(=O)N3CCOCC3)cc2OC)ncc1Cl", "reduction in cell viability": "< 0"}
{"smiles": "O=C(CCCCCCC(=O)Nc1ccc([C@H]2O[C@@H](CSc3nc(-c4ccccc4)c(-c4ccccc4)o3)C[C@@H](c3ccc(CO)cc3)O2)cc1)NO", "note": "[Tubacin]", "reduction in cell viability": "< 0"}
{"smiles": "CC1(C)CCC[C@]2(C)[C@H]3CC(=O)O[C@]3(C)CC[C@@H]12", "note": "[Sclareolide]", "reduction in cell viability": "< 0"}
{"smiles": "N#Cc1c(O)c2c(-c3ccc(-c4ccccc4O)cc3)csc2[nH]c1=O", "reduction in cell viability": "< 0"}
{"smiles": "O=c1[nH]c(=O)n([C@H]2C[C@H](O)[C@@H](CO)O2)cc1F", "note": "[Floxuridine]", "reduction in cell viability": 78}
{"smiles": "CN(C)CCN(Cc1ccc(Cl)cc1)c1ccccn1", "note": "[Chloropyramine hydrochloride]", "reduction in cell viability": "< 0"}
{"smiles": "N#Cc1c(C2CCNCC2)cc(-c2c(O)cccc2OCC2CC2)nc1N", "note": "[IKK-2 Inhibitor VIII]", "reduction in cell viability": "< 0"}
{"smiles": "CN1CCN(c2ncc(-c3cc(Cl)cc(Cl)c3Cl)c(N)n2)CC1", "note": "[Sipatrigine]", "reduction in cell viability": "< 0"}
{"smiles": "CC(=O)N1CCN(c2ccc(OCc3nn(C)c(C)c3-c3cccc4c(CCCOc5cc(C)c(Cl)c(C)c5)c(C(=O)O)n(Cc5cccnc5)c34)cc2)CC1", "reduction in cell viability": "< 0"}
{"smiles": "CCC1=C[C@@H]2CN(C1)Cc1c([nH]c3ccccc13)[C@@](C(=O)OC)(c1cc3c(cc1OC)N(C)[C@H]1[C@@](O)(C(=O)OC)[C@H](OC(C)=O)[C@]4(CC)C=CCN5CC[C@]31[C@@H]54)C2", "note": "[Vinorelbine tartrate]", "reduction in cell viability": 80.7}
{"smiles": "CC1(C)C(N(O)C(=O)Nc2ccc(Cl)cc2)N(c2ccc(Cl)cc2)C(=O)N1CC(=O)NN=CC=Cc1ccc([N+](=O)[O-])o1", "note": "(stereo not drawn) [Eeyarestatin I]", "reduction in cell viability": "< 0"}
{"smiles": "COc1cc2ncnc(Nc3ccc(F)c(Cl)c3)c2cc1NC(=O)/C=C/CN1CCCCC1", "note": "[Dacomitinib]", "reduction in cell viability": "< 0"}
{"smiles": "CNC(=O)CN1CCC(Oc2cc3c(Nc4cccc(Cl)c4F)ncnc3cc2OC)CC1", "note": "[Sapitinib]", "reduction in cell viability": "< 0"}
{"smiles": "COc1c(OCCCN2CCOCC2)ccc2c1N=C(NC(=O)c1cnc(N)nc1)N1CCN=C21", "reduction in cell viability": "< 0"}
{"smiles": "C=CC(=O)N1CCc2ccc(-n3c(=O)ccc4cnc5ccc(-c6cnn(C)c6)cc5c43)cc21", "reduction in cell viability": "< 0"}
{"smiles": "CC[C@H](/C=C/[C@@H](C)[C@H]1CC[C@H]2[C@@H]3CC=C4C[C@@H](O)CC[C@]4(C)[C@H]3CC[C@]12C)C(C)C", "note": "[Stigmasterol]", "reduction in cell viability": "< 0"}
{"smiles": "C=C1C[C@@]2(O)O[C@@]3(C[C@H]2C(C)C)[C@@H](C)CC[C@@H]13", "note": "[Curcumol]", "reduction in cell viability": "< 0"}
{"smiles": "Cc1ccc(-c2ncn(-c3ccc(Nc4nccc(-c5cccc(N6CCOCC6)c5)n4)cc3)n2)cn1", "reduction in cell viability": 24.7}
{"smiles": "CN1CCC(=C2c3ccccc3CC(=O)c3sccc32)CC1", "note": "[Ketotifen]", "reduction in cell viability": "< 0"}
{"smiles": "CCCCOc1ccc(C(=O)Nc2ccc(F)cc2F)cc1", "reduction in cell viability": "< 0"}
{"smiles": "CCCCCCCCCCC[C@@H](C[C@@H]1OC(=O)[C@H]1CCCCCC)OC(=O)[C@H](CC(C)C)NC=O", "note": "[Orlistat]", "reduction in cell viability": "< 0"}
{"smiles": "CC1=C[C@@H]2[C@H]([C@@H](O)C[C@@]3(C)[C@H]2C[C@@H](C)[C@]3(O)C(=O)CO)[C@@]2(C)Cc3cnn(-c4ccccc4)c3C=C12", "note": "[Deacetyl cortivazol]", "reduction in cell viability": "< 0"}
{"smiles": "COC(=O)Nc1nc2cc(C(=O)c3ccc(F)cc3)ccc2[nH]1", "note": "[Flubendazole]", "reduction in cell viability": 11.2}
